Values from PubChem BioAssay AID1259424 (University of Nebraska Medical Center, 2018).
Shown is an unselected part of about 14,000 deposited reagents. 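Higher correlation or smaller distance means closer resemblance to KSR1 loss; control wells, including KSR1 knockdowns, recur on many plates.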 Not given: the time to read-out.

- Assay: 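Rank knockdowns across the genome by resemblance to the KSR1 depletion profile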 (primary screen)
- Cell system: human HCT116 colon cancer cells
- Reagents: siRNA pool against human genes, 50 nM
- Read-out: 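Log2 levels of six mRNAs (branched-DNA multiplex), adjusted by two reference genes and the non-targeting median, then scored against the average KSR1 knockdown pattern as Pearson r and euclidean distance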
- Scale: mean correlation with KSR1 profile and KSR1 correlation: higher = expression change more like KSR1 knockdown; mean distance from KSR1 profile: higher = expression change less like KSR1 knockdown

target	mean correlation with KSR1 profile	mean distance from KSR1 profile	KSR1 correlation, replicate 1	KSR1 correlation, replicate 2	KSR1 correlation, replicate 3
VAV2	-0.379	2.97	-0.36	-0.0924	-0.366
VCL	0.184	1.4	0.509	-0.079	0.151
PLIN1	0.342	1.32	0.304	0.594	0.214
ARHGEF10L	-0.256	2.94	-0.393	-0.23	-0.12
CACNG1	-0.166	3.65	-0.179	-0.198	-0.301
NVL	-0.0991	1.55	-0.104	0.204	-0.172
NDFIP2	-0.542	6.61	-0.795	-0.442	-0.629
SPTLC3	-0.192	2.74	-0.0267	-0.23	-0.382
GLI2	0.0428	3.06	0.105	-0.175	0.369
OR2M4	0.489	1.32	0.499	0.395	0.442
CTBP1	-0.674	3.37	-0.729	-0.482	-0.813
COL9A2	-0.499	2.39	-0.492	-0.395	-0.568
ENTPD4	0.167	2.32	0.177	0.137	0.146
VWA7	0.96	0.923	0.841	0.901	0.957
CD36	0.171	1.97	0.158	0.0637	0.275
BRSK1	-0.0164	2.56	0.478	0.116	-0.48
TUBA1C	-0.0194	5.05	-0.158	0.0312	0.025
KIAA1549	0.0313	1.79	-0.117	0.513	0.134
REG1CP	0.519	1.81	0.628	0.424	0.468
DRG1	-0.0796	1.85	-0.0466	-0.355	0.696
SLC13A2	-0.326	2.74	-0.166	-0.439	-0.268
CAPZB	-0.283	1.68	-0.0256	-0.415	-0.469
HSPA1B	0.648	1.37	0.745	0.657	0.457
SGCD	-0.317	2.62	-0.446	-0.425	0.0887
CACNA1S	0.0157	1.57	-0.0841	0.126	0.0305
ITGAD	-0.0788	3.57	-0.0236	-0.261	-0.2
EXPH5	-0.241	1.53	-0.0591	-0.425	-0.158
LTBP4	0.53	2.49	0.61	0.356	0.549
AIFM1	0.172	2.89	0.066	0.243	0.14

No new results follow: entries from further up.
target	mean correlation with KSR1 profile	mean distance from KSR1 profile	KSR1 correlation, replicate 1	KSR1 correlation, replicate 2	KSR1 correlation, replicate 3
BRSK1	-0.0164	2.56	0.478	0.116	-0.48
TUBA1C	-0.0194	5.05	-0.158	0.0312	0.025
KIAA1549	0.0313	1.79	-0.117	0.513	0.134

The listing continues:
target	mean correlation with KSR1 profile	mean distance from KSR1 profile	KSR1 correlation, replicate 1	KSR1 correlation, replicate 2	KSR1 correlation, replicate 3
ROS1	0.0268	2.24	0.102	-0.382	0.212
CLTA	0.28	2.36	0.594	0.218	-0.348
WASL	0.153	2.26	0.179	0.361	0.304
MAGEB2	0.085	2.33	0.0106	0.161	-0.00087
RPS6KB1	-0.0971	3.5	0.117	-0.485	-0.121
SNAP29	0.0485	2.19	-0.00892	0.203	0.176
TSR1	0.024	2.6	-0.0731	0.016	0.059
UBE2O	-0.336	3.46	-0.279	-0.133	-0.326
H1-10	-0.119	1.95	0.0728	-0.278	0.0489
GNL3LP1	0.794	1.26	0.868	0.801	0.546
GRSF1	-0.518	3.25	-0.0892	-0.564	-0.707
KRT5	-0.476	2.58	-0.402	-0.62	-0.458
GALE	0.432	2.68	0.388	0.517	0.459
NUPR1	0.778	3.79	0.657	0.712	0.682
ZNF35	-0.14	2.38	-0.167	0.122	0.0896
SEC14L2	-0.397	2.83	-0.564	-0.365	-0.381
HPR	0.809	1.96	0.733	0.758	0.828
ABCC1	-0.288	1.8	0.0153	-0.508	-0.243
TNFSF11	0.151	1.57	0.101	0.0212	0.217
CSRNP2	0.803	2.6	0.811	0.752	0.858
TMEM131	0.0998	1.85	0.236	-0.041	0.0975
